The campaign covered roughly 340,000 compounds. About 170 (0.05%) were called active. The shares of active, inactive and inconclusive entries below differ from those in the screen. Calls come from the whole dose curve; as a rule, active = well fitted inhibition curve with a large enough effect in the signal ratio, with a control signal flat (not every such curve was filed as active); inconclusive = small, poorly fitted or top-dose-only effect, or effect the other way, or a change in a side signal; inactive = flat fitted curve, though single readings scatter; the % refers to the signal ratio. Potencies beside an inconclusive call are fits to weak or partial responses and may not hold up.
Test: qHTS Assay to Find Inhibitors of Chronic Active B-Cell Receptor Signaling;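 for activity change, negative = inhibition: plate controls were basal doxycycline-induced cells for no effect and cells given 10 µM MG132 for full effect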
Settings: ABC-DLBCL IkBa-CBG/CBR reporter, luminescence ratio (green luciferase fused to IkBa over red control in TMD8 lymphoma cells), 4 h; activity change, negative = inhibition: at 46.1 µM (top of the series)
Outline: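 TMD8 human ABC-DLBCL cells with doxycycline-inducible IκBα–green luciferase fusion and unfused red luciferase, in 0.5% FBS medium; compounds up to 46 uM, 4 h at 37C. Green/red luminescence ratio, filter-overlap corrected, fitted to concentration-response curves.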
Potency is the fitted concentration of half-maximal effect.

For `COc1ccc(S(=O)(=O)N2c3cc(C)ccc3OCC2C(C)(C)C)cc1` (stereo not drawn), which activity change, negative = inhibition is on record?
Its activity change, negative = inhibition is inconclusive: -17.9%.

With `Cc1cnc(CNC(=O)CC2C(=O)NCCN2Cc2cccc(F)c2F)cn1` (stereo not drawn) as the compound, how does the activity change, negative = inhibition read?
Its activity change, negative = inhibition is “inactive”.

With `Cc1cccc(N(C(=O)c2nsc(Cl)c2Cl)C(C(=O)NC2CCCC2)c2ccc(O)cc2)c1` (stereo not drawn) as the compound, how does the activity change, negative = inhibition read?
Its activity change, negative = inhibition is inconclusive: -0.6%.

Which Potency does the source give for `COc1cccc(NC(=O)Nc2nc(SC)ns2)c1` here?
Its Potency is inconclusive: 17.8 µM [falling, partial curve].

For `O=C(Nc1c(O)c2ccccc2[nH]c1=O)c1ccco1`, which activity change, negative = inhibition is on record?
Its activity change, negative = inhibition is “inactive”.

For `COc1cc(C2CC(=O)c3cnc(NC(=O)c4ccco4)nc3C2)cc(OC)c1OC` (stereo not drawn), which activity change, negative = inhibition is on record?
The activity change, negative = inhibition was “inactive”.

Which activity change, negative = inhibition does the source give for `Cc1cc[n+](CC(=O)c2ccc(NC(=O)c3ccccc3)cc2)cc1` here?
The activity change, negative = inhibition was “inactive”.

For `CCc1nnc(NC(=O)c2ccc(S(=O)(=O)N(CCOC)CCOC)cc2)s1`, which Potency is on record?
Its Potency is inconclusive: 2.59 µM [rising, full curve, poor fit].

With `O=C(CC1(O)C(=O)Nc2cc(Cl)cc(Cl)c21)c1ccncc1` (stereo not drawn) as the compound, how does the activity change, negative = inhibition read?
The activity change, negative = inhibition was inconclusive: -26.4%.

For `Cc1cc(C)n(-c2nc3ccccc3c(=O)n2OCC(=O)OCc2ccccc2)n1`, which activity change, negative = inhibition is on record?
Its activity change, negative = inhibition is inconclusive: -27.2%.

For `Cc1ccn(S(=O)(=O)c2ccc3oc(=O)ccc3c2)n1`, which activity change, negative = inhibition is on record?
Its activity change, negative = inhibition is “inactive”.

Which Potency does the source give for `CS(=O)(=O)N(CC(=O)NCCSCc1ccccc1)c1ccc2c(c1)OCO2` here?
Its Potency is inconclusive: 3.16 µM [falling, partial curve, poor fit].

For `COc1ccc(S(=O)(=O)N2CCC(C(=O)NCc3cccnc3)CC2)cc1OC`, which activity change, negative = inhibition is on record?
Its activity change, negative = inhibition is “inactive”.

With `COc1ccc(C(=O)NC(C)(C)C)cc1S(=O)(=O)N1CCCC1` as the compound, how does the activity change, negative = inhibition read?
Its activity change, negative = inhibition is inconclusive: 12.9%.

With `Cc1ccc(N=C2NC(=O)S/C2=C\c2ccco2)cc1` as the compound, how does the activity change, negative = inhibition read?
Its activity change, negative = inhibition is inconclusive: 15.3%.

With `COc1ccccc1C(CNC(=O)CSc1ccc2ccccc2c1)N(C)C` (stereo not drawn) as the compound, how does the activity change, negative = inhibition read?
The activity change, negative = inhibition was inconclusive: -11.1%.

With `COc1ccc(NS(=O)(=O)c2ccc(C)c(NC(=O)CNC(=O)c3ccco3)c2)cc1` as the compound, how does the activity change, negative = inhibition read?
Its activity change, negative = inhibition is inconclusive: 0.134%.

For `O=C(NCc1ccco1)c1cc(-c2ccc(F)cc2)on1`, which Potency is on record?
Its Potency is inconclusive: 11.2 µM [falling, partial curve].

Which activity change, negative = inhibition does the source give for `CCCC(=O)Nc1ccc(OCC(=O)OC)cc1` here?
Its activity change, negative = inhibition is inconclusive: 4.12%.

Which activity change, negative = inhibition does the source give for `O=[N+]([O-])c1ccc(C[n+]2cccc3ccc4cccnc4c32)cc1` here?
The activity change, negative = inhibition was inconclusive: -17%.

With `COc1cccc(COCCN2CCN(S(=O)(=O)c3ccc(C)cc3)CCC2=O)c1` as the compound, how does the activity change, negative = inhibition read?
Its activity change, negative = inhibition is inconclusive: 0.73%.

With `Cc1ccc2[nH]c(C(F)(F)F)cc(=O)c2c1` as the compound, how does the activity change, negative = inhibition read?
Its activity change, negative = inhibition is inconclusive: 3.71%.

For `N#CCC(=O)Nc1ccc(C(=O)Nc2cccnc2)cc1`, which Potency is on record?
The Potency was inconclusive: 12.6 µM [falling, single point].

Reference: PubChem BioAssay AID493014 (National Center for Advancing Translational Sciences (NCATS), 2011)
